Source: PubChem BioAssay AID2551 (National Center for Advancing Translational Sciences (NCATS), 2010)
Several values for one entry are separate records, joined by “and”; a condition that tells them apart may be missing. Equal values may be shown once. About 17,000 (5.5%) of roughly 310,000 compounds were called active. Inconclusive means that the source gave no clear call. Such entries were picked first, then a sample of the others. Calls follow the shape of the dose curve; as a rule, active = well fitted inhibition curve with a large enough effect; inconclusive = small, poorly fitted or top-dose-only effect, or effect the other way; inactive = no such curve, though single readings can be large or run the other way. Potencies beside an inconclusive call are fits to weak or partial responses and may not hold up.

Sequences of proteins named here, by UniProt entry; tags and fusion partners are left off. A change or cut given only in a name is not applied to a line headed by its entry.
UniProt P51450: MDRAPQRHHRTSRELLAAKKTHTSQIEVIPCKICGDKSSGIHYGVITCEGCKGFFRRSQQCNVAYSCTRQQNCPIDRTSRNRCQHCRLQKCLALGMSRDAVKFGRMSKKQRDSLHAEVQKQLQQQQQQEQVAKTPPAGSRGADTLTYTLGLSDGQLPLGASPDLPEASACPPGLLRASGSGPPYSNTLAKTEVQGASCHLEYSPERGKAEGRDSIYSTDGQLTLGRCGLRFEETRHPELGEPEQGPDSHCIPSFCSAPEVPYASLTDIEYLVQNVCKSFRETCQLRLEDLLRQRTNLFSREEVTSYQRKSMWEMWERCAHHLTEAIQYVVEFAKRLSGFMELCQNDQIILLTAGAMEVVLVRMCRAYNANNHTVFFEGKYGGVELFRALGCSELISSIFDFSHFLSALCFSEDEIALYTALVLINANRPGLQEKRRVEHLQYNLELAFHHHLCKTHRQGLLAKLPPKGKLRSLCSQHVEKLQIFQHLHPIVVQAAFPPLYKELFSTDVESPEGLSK

target: Nuclear receptor ROR-gamma (Mus musculus) (UniProt P51450); assay: qHTS for inhibitors of ROR gamma transcriptional activity; details: Drosophila S2 Gal4-RORgamma UAS-luciferase reporter, 20 h; activity change, negative = inhibition: at 53.6 µM (top of the series); also: nearly all actives have a fitted effect of over 60% in size
In short: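 Drosophila Schneider cells stably carrying a metallothionein-driven Gal4 DBD–ROR gamma fusion and a UAS-Photinus luciferase reporter were exposed to compound for 1 hr, then induced with copper sulfate (700 uM final) for 20 hr at ambient temperature before luminescence reading.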
% is scaled to controls: 0 for no effect and ±100 for the full control effect; potency is read from the fitted curve at half-maximal effect.

Activity change, negative = inhibition, inactive:
S=C(Nc1ccc2nsnc2c1)N1CCCCCC1 14.4%
CC(C)=NNc1nc2c(c(=O)n(C)c(=O)n2C)n1C -13.2%
Cn1c(N2CCN(c3ccccn3)CC2)nc2c1c(=O)n(Cc1ccc(Cl)cc1)c(=O)n2C 4.53%
CCN(CC)CCCN1CC(O)=C(c2nc3ccccc3s2)C1=N 6.01%
O=C(CC(=O)NCc1ccc(Cl)cc1)NCc1ccccc1 14.3%
O=C1C(C=NCCN2CCOCC2)=C(O)c2ccccc21 -29%
CCOc1ccc(C(C(=O)Nc2ccc(F)cc2)N(C(=O)Cn2nnc3ccccc32)C2CC2)cc1 (configuration not stated) 32.9%
CCCCNc1nc(-c2ccccc2)c(C(=O)OCC)cc1C#N 23.6%
CCOC(=O)N1CCN(c2nc3ccccn3c(=O)c2C=O)CC1 13.9%
O=C(CSc1ncnc2scc(-c3ccc(Cl)cc3)c12)NCc1ccc2c(c1)OCO2 -12.5%
CN(C)C(=O)Nc1ccccc1CC[N+](=O)[O-] -11.4%
O=C(O)c1cccc(CSc2n[nH]c(-c3ccc(Cl)cc3Cl)n2)c1 -1.06%
O=C(Cn1cnc2sc3c(c2c1=O)CCCC3)NCC(=O)Nc1c(F)cccc1F 7.82%
O=C(NCCSc1c(-c2ccccc2)[nH]c2ccccc12)c1cc2ccccc2oc1=O 39.5%
CC(=O)Nc1ccc(S(=O)(=O)NC2Cc3ccccc3C2)cc1 38.5%
O=[N+]([O-])c1ccc(N2CCCC2)cc1N1CCCC1 -6.87%
Cc1c(Cl)cccc1NC(=S)NCCCN(C)C -11.9%
Cc1sc(NC(=O)/C=C/c2ccco2)c(C(=O)O)c1C -29.3%
O=C(Cn1c(=O)n(-c2ccc(F)cc2)c(=O)c2sccc21)c1ccccc1 36%
CCN(CC)S(=O)(=O)c1ccc(N2CCN(c3cccc(OC)c3)CC2)c([N+](=O)[O-])c1 40.7%
CN(Cc1ccc(F)cc1)C(=O)c1cccc(NS(=O)(=O)c2ccccc2)c1 19%
O=C(Nc1ccc2c(c1)nc1n2CCOC1)c1ccco1 -44.8%

Potency, inactive:
Nc1ccn([C@@H]2CS[C@H](CO)O2)c(=O)n1

Potency, active:
CCOC(=O)c1ccc(NC(=S)N2CCCC(C)C2)cc1 (configuration not stated) 12.6 µM
Cc1ccc(NC(=S)Nc2cc(-c3ccccc3)[nH]n2)cc1Cl 0.794 µM
Cc1ccc(/C=C2\SC(=S)N(CCCC(=O)NC3CCCC3)C2=O)cc1 1.58 µM
CCN=C1NN=C(c2cc(C)n(Cc3ccco3)c2C)CS1 0.282 µM
CC(C)c1nc2sc3c(=S)nc[nH]c3c2c2c1CCC2 3.16 µM
Cc1ccc(C2(c3noc(CN(C)Cc4ccccn4)n3)CCCC2)cc1 15.8 µM
Cc1ccc(CC2S/C(=N/N=C/c3ccco3)NC2=O)cc1 (configuration not stated) 1.41 µM
CCNC(=S)Nc1ccc(OCc2nc3ccccc3s2)cc1 12.6 µM
O=c1c2cc(Br)ccc2[nH]c(=S)n1Cc1ccccn1 2.82 µM
Cc1cccc(NC(=O)CSc2cc(C)c(C#N)c3nc4ccccc4n23)c1 0.794 µM
CCc1nnc(NC(=O)c2ccc(S(=O)(=O)N(CC(C)C)CC(C)C)cc2)o1 0.316 µM
Cc1cc(C)nc(N=Nc2c(O)n(Cc3ccc(Cl)cc3)c3ccccc23)n1 5.62 µM
Cc1nnc(NC(=O)c2ccc(S(=O)(=O)N3CCCCC3C)cc2)o1 (configuration not stated) 1.12 µM
O=C(NC(=S)N1CCN(c2ccccn2)CC1)c1ccco1 0.178 µM
O=C(O)/C=C/C(=O)Nc1ccccc1C(=O)OCC(=O)c1ccc2c(c1)OCCO2 7.94 µM
Cc1ccc(S(=O)(=O)N(C)C)cc1NC(=S)NC(=O)C12CC3CC(CC(C3)C1)C2 7.08 µM
Cc1cc(C2=NNC(=NC3CC3)SC2)c(C)n1-c1ccccc1 2.51 µM
CN(Cc1cn(Cc2ccccc2)nc1-c1ccc2c(c1)OCO2)Cc1nccn1C 12.6 µM
c1ccc(-c2nnc(NC3=NCCC3)o2)cc1 7.08 µM

Sorted by number of heavy atoms (smallest number first): some entries from above.
Potency, active:
CC(C)c1nc2sc3c(=S)nc[nH]c3c2c2c1CCC2 3.16 µM
Cc1ccc(CC2S/C(=N/N=C/c3ccco3)NC2=O)cc1 (configuration not stated) 1.41 µM
Cc1ccc(C2(c3noc(CN(C)Cc4ccccn4)n3)CCCC2)cc1 15.8 µM
Cc1ccc(S(=O)(=O)N(C)C)cc1NC(=S)NC(=O)C12CC3CC(CC(C3)C1)C2 7.08 µM

Next part.

Potency, inconclusive:
COc1cccc(NC(=O)C2CCCCC2)c1 31.6 µM [activator, single point]
O=C(Nc1nnc(C(F)(F)F)s1)c1ccc(Br)s1 35.5 µM [inhibitor, single point]
COc1ccc(OC)c(-c2cc(C(=O)Nc3c(C)nn(Cc4ccccc4Cl)c3C)no2)c1 7.94 µM [activator, partial curve]
COc1ccccc1NC(=O)COC(=O)c1ccc([N+](=O)[O-])s1 22.4 µM [inhibitor, partial curve]
CCc1nnc(NC(=O)[C@@H](NC(=O)c2ccc(C(C)(C)C)cc2)C(C)C)s1 35.5 µM [activator, single point]
Cc1ccc2cc3c(N)c(C(=O)N4CC(=O)Nc5ccccc54)sc3nc2c1 5.62 µM [activator, single point]
C=CCc1cccc(C=Nc2cccn3cc(-c4ccccc4)nc23)c1O 35.5 µM [inhibitor, single point]
CN1N=C2c3ccccc3CCCC2C1c1ccc(F)cc1 (configuration not stated) 31.6 µM [inhibitor, single point]
CC/C(=N\NC(=O)c1c(C)nc2ccccn12)c1ccc(Cl)cc1 22.4 µM [inhibitor, single point]
CCc1ccccc1NC(=O)/C(=C/c1ccccc1)c1ccccc1 4.47 µM [activator, partial curve, poor fit]
O=C(Cc1ccccc1)Nc1ccc(NC(=O)c2ccco2)cc1Cl 35.5 µM [activator, single point]
COc1ccc(OC)c(Nc2cc(-c3ccccc3)nc(N)n2)c1 35.5 µM [activator, single point]
O=C(O)c1ccc(NC(=S)NC(=O)c2ccc3ccccc3c2)cc1 2.24 µM [activator, partial curve, poor fit]
O=C(Nc1ccc(Cl)cn1)c1ccccc1SCc1ccccc1 11.2 µM [activator, single point]
Cc1cc(N)c2ccccc2[n+]1CCCCCCCCCC[n+]1c(C)cc(N)c2ccccc21 2.24 µM [activator, full curve] and 5.01 µM [activator, full curve]
Cc1cc(NC(=O)CCC(=O)N(CC(=O)NCC2CCCO2)c2ccccc2C)no1 (configuration not stated) 35.5 µM [inhibitor, single point]
CCN(CC)S(=O)(=O)c1ccc(N2CCN(C)CC2)c(NC(=O)Nc2ccc(C)cc2)c1 11.2 µM [inhibitor, single point]
N#Cc1cccc(Oc2ccc(-c3cnc4ccccc4n3)cc2)c1C#N 4.47 µM [activator, full curve]
CCOc1ccc(-c2c(C(=O)N/N=C/c3ccc(Cl)cc3)nnn2-c2nonc2N)cc1 17.8 µM [inhibitor, single point]
CC1=C(C(=O)OCc2ccccc2)C(c2ccc(-c3ccccc3)cc2)NC(=O)N1CCCCCC(=O)O (configuration not stated) 17.8 µM [activator, single point]
CC(OC(=O)c1ccc2c(c1)C(=O)N(Cc1ccncc1)C2=O)C(=O)Nc1cccc(Cl)c1Cl (configuration not stated) 31.6 µM [activator, single point]
Cc1cc(OCCn2nc(C(=O)O)c3ccccc3c2=O)ccc1C(C)C 12.6 µM [activator, single point]
Cc1ccc(Nc2c(-c3ccccc3O)nc3cnccn23)cc1 25.1 µM [inhibitor, single point]
Cc1nn(C)c(C(=O)N/N=C/c2ccc(Br)cc2)c1Cl 35.5 µM [inhibitor, single point]
Cc1ccc2nc(/C(C#N)=C/c3ccc(-c4cccc([N+](=O)[O-])c4)o3)[nH]c2c1 22.4 µM [activator, partial curve, poor fit]
O=c1[nH]cnc2cc(-c3ccccc3)sc12 11.2 µM [inhibitor, single point]
COC(=O)c1ccc(C(=O)OC)c(NC(=O)CN(C)Cc2ccc(Cl)c(Cl)c2)c1 12.6 µM [activator, single point]
N#Cc1nc(COc2ccccc2Cl)oc1NCc1ccco1 35.5 µM [activator, single point]
O=C(CC1Nc2ccccc2NC1=O)Nc1ccc2c(c1)OCO2 (configuration not stated) 35.5 µM [inhibitor, single point]
COc1ccccc1C1=Nn2c(nnc2-c2ccccc2C)SC1 31.6 µM [activator, single point]
Cc1ccc(-c2csc3ncnc(-n4cnc5ccccc54)c23)cc1 20 µM [inhibitor, partial curve, poor fit]
CC(=O)N1CCN(c2ccc(NC(=O)c3cccc(Cl)c3Cl)cc2)CC1 11.2 µM [activator, single point]
O=C(COc1c(Br)cc(Br)c2cccnc12)Nc1ccccc1F 5.01 µM [inhibitor, partial curve, poor fit]
CCN(CC)S(=O)(=O)c1ccc(C)c(NC(=O)COc2ccc(Cl)cc2Br)c1 12.6 µM [inhibitor, single point]
Cc1cccc(NS(=O)(=O)c2ccc(NC(=O)N3CCCCC3)cc2)c1 12.6 µM [activator, partial curve]
